This passage reports nuclei count results from PubChem BioAssay AID483 (Columbia University Molecular Screening Center, 2006).

The list shows a part of the results.

The nature of this test: reduction of polyQ htt aggregates in cells – imaging, exon1htt(103Q)mCFP cells, high-content imaging, primary screen (AID 483).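 Also: compound exposure lasted 3 days before fixation; percent of the per-plate median nuclei count of sample wells.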 Conditions: exon1htt(103Q)mCFP cell line, aggregate imaging; measured here: cell count, toxicity; at 2 µM.
For the compound `Cc1nn(-c2ccccc2)c2c1P(=O)(N1CCOCC1)N(C)C(c1ccccc1)=N2` (stereo not given), the nuclei count stood at 98.4%.
Turning to `CCOP1(=S)c2c(C)nn(CCC#N)c2N=C(c2ccccc2F)N1C` (stereo not given), the nuclei count worked out at 69.5%.
The same measure for `Cc1ccc(C)c(NP(C)(=O)Oc2ccccc2)c1` (stereo not given): 96.8%; for `CP(=S)(Nn1cnnc1)Oc1ccccc1` (stereo not given): 105%; for `COP1(=S)c2c(C)nn(CCC#N)c2N=C(c2ccc(F)cc2)N1C` (stereo not given): 99.8%.
The same measure for `O=C(COc1ccccc1)OC1CN2CCC1CC2` (stereo not given): 107%; for `CP(=O)(Nc1ccccn1)Oc1ccccc1` (stereo not given): 64%; for `CN(C)CCOC(=O)C(O)(c1ccccc1)C1CCCCC1` (stereo not given): 106%.
The same measure for `CP(=O)(Nc1ccc2c(c1)OCCO2)Oc1ccccc1` (stereo not given): 104%; for `O=P(Nc1nccs1)(c1ccccc1)c1ccccc1`: 106%.
